# In all, about 290,000 compounds went through this assay and about 110 (0.038%) were called active. Inconclusive results, whose numbers are uncertain, are shown with a selection of clear calls. Calls come from the whole dose curve; as a rule, active = well fitted inhibition curve with a large enough effect in the polarisation, with a control signal flat (not every such curve was filed as active); inconclusive = small, poorly fitted or top-dose-only effect, or effect the other way, or a change in a side signal; inactive = no such curve, though single readings can be large or run the other way; the % refers to the polarisation. Potencies beside an inconclusive call are fits to weak or partial responses and may not hold up. “Side channel” marks fits to a control or component signal instead of the main read-out.
# Amino acid sequences for entries named in this document (tags omitted).
# UniProt Q03164, whole entry, looked up: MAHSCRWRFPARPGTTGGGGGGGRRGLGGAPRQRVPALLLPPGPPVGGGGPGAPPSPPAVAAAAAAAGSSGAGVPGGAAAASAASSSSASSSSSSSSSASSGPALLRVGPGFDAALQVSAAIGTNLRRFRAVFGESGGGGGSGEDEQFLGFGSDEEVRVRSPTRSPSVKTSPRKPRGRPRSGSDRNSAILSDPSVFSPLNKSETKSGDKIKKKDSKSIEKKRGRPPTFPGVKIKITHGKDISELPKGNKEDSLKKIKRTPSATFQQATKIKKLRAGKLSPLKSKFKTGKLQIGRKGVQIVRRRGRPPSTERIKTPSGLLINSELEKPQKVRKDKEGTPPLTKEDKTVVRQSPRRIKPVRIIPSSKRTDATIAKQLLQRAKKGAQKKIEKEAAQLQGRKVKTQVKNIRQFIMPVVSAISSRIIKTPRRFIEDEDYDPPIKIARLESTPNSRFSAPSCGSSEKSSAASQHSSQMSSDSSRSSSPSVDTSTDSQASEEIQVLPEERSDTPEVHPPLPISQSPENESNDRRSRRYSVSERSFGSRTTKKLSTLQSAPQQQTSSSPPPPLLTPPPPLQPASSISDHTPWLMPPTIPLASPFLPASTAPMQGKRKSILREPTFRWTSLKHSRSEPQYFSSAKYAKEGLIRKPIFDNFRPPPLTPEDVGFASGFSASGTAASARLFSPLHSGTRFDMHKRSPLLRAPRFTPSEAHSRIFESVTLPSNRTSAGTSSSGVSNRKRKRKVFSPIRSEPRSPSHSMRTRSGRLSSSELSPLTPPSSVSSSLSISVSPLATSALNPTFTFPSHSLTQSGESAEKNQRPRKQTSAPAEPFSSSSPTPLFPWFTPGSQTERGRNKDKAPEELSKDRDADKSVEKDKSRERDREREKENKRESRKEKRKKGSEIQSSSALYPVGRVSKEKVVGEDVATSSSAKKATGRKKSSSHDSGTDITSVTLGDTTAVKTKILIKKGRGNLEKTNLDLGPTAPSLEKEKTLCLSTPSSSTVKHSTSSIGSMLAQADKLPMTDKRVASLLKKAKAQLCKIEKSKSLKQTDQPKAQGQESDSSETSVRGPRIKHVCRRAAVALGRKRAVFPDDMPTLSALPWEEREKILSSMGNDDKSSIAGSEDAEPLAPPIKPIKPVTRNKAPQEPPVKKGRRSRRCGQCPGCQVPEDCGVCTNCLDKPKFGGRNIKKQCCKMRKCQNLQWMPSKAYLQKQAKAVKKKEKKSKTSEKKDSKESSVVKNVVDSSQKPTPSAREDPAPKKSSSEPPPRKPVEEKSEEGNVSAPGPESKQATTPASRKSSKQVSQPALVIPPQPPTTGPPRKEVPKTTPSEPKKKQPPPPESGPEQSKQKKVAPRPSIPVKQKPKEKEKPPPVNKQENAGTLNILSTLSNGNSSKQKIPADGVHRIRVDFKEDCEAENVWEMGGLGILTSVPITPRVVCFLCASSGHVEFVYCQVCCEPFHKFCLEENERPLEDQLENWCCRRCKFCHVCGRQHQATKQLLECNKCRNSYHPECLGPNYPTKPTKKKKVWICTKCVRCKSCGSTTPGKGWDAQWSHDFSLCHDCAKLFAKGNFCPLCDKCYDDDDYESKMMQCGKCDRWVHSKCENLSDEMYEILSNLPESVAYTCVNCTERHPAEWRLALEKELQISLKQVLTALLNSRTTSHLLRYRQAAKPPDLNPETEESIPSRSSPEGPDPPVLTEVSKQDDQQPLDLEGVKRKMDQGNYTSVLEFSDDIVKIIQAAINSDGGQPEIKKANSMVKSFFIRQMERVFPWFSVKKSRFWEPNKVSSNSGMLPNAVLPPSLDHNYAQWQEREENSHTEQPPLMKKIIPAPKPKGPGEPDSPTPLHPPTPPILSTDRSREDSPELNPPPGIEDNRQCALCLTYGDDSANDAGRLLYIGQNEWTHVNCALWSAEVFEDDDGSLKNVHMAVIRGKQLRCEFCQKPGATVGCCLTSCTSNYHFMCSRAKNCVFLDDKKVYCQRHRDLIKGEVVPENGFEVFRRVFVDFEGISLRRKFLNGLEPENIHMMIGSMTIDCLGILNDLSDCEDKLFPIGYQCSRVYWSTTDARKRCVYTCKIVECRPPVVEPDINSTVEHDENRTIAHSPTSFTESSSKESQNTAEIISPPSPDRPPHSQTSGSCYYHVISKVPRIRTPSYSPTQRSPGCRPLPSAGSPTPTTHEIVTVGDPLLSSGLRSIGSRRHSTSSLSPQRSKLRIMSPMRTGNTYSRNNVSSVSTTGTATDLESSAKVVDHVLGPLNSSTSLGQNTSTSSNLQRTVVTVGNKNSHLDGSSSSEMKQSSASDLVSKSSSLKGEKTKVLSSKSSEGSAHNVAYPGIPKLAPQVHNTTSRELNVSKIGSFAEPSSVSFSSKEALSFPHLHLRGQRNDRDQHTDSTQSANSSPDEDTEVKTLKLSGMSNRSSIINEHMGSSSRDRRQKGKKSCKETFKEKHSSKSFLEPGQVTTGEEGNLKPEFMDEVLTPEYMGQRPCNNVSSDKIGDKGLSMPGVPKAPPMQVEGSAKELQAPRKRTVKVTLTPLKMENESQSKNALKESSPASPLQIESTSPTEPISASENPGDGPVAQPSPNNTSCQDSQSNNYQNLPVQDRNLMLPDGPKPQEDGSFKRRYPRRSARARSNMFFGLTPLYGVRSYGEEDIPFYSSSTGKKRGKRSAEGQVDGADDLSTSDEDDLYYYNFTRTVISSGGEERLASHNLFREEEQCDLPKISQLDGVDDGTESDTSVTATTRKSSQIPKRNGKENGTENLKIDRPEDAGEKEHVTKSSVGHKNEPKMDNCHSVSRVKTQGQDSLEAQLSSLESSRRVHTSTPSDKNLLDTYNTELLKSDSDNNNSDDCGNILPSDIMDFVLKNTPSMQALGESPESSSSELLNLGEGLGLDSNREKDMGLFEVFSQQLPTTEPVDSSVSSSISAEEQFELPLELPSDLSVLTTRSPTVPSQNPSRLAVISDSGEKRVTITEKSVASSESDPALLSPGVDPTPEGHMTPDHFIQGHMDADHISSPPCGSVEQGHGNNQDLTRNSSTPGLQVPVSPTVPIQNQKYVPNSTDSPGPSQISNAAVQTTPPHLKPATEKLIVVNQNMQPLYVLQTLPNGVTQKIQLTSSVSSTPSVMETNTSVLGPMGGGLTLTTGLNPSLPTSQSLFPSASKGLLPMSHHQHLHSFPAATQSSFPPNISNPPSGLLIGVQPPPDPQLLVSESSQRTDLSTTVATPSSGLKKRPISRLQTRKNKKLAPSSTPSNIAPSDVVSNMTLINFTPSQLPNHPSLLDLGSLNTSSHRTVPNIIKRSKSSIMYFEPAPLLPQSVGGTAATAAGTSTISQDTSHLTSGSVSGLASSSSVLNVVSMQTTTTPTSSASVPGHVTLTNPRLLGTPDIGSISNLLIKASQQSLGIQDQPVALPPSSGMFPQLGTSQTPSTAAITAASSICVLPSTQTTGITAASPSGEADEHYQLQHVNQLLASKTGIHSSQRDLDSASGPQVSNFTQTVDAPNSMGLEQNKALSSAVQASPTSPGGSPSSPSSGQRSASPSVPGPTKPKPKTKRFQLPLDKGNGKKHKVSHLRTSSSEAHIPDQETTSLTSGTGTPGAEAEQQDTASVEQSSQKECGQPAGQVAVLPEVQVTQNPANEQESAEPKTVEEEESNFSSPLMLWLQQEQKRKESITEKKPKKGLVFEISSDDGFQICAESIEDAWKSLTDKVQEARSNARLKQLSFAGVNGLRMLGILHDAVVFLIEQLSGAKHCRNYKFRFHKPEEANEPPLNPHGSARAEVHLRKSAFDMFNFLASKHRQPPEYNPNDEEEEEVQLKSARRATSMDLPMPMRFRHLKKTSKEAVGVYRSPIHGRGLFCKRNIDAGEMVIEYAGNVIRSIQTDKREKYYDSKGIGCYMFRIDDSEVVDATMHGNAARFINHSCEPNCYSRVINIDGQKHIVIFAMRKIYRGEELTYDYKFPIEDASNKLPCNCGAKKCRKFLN
# Biological target: Histone-lysine N-methyltransferase 2A (Homo sapiens) (UniProt Q03164)
# Assay: qHTS Fluorescence Polarization Assay for Inhibitors of MLL CXXC domain - DNA interaction
# Details: MLL-CXXC / FITC-HOXA9 DNA fluorescence polarization; activity change, negative = inhibition: at 115 µM (top of the series)
# Outline: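 Fluorescence polarization: 7 uM MLL-CXXC (stock) preincubated 5 min with compounds, then 50 nM fluorescein-HOX-A9 DNA (stock) added; 30 min ambient. Buffer 50 mM Tris-HCl pH 7.5, 50 mM NaCl, 1 mM DTT, 0.05% BSA.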
# Potency is the fitted concentration of half-maximal effect.
SMILES,Potency,"activity change, negative = inhibition"
CCN(CC)CCCNC(=O)c1cc2c(Cl)nc3ccccc3c2s1,"inconclusive: 89.1 µM [inhibitor, single point]",
CN(CCNC(=O)c1cc2c(-c3ccccc3F)nn(C)c2s1)C1CCCCC1,"inconclusive: 35.5 µM [fluorescent, side channel, single point]",
O=C(Oc1cccnc1)c1ccccc1[N+](=O)[O-],"inconclusive: 70.8 µM [quencher, side channel, single point]",
c1ccc(N2CCN(c3ncccn3)CC2)cc1,,inactive: -0.53%
CC1(C)c2ccccc2N2CCC(=O)NC21/C=C/c1ccco1 (stereo unspecified),,inactive: 17.1%
N#Cc1c(NC(=O)CSc2nc(-c3ccccc3)cc(C(F)(F)F)n2)sc2c1CCC2,"inconclusive: 6.31 µM [fluorescent, side channel, single point]",
CCCn1c(CN(C)Cc2ccccc2)nc2c1c(=O)n(C)c(=O)n2C,,inactive: -0.667%
CCCCOn1c(C)c(C(C)=O)c2c3no[n+]([O-])c3ccc21,"inconclusive: 7.08 µM [fluorescent, side channel, full curve, poor fit]",
COc1cc2c(cc1OC)C(c1ccccc1)N(C(=O)c1cccc(S(C)(=O)=O)c1)CC2 (stereo unspecified),,inactive: 21.1%
CCCCCn1c(=O)[nH]c2cc(C(=O)NCCCN(CC)CC)ccc2c1=O,,inactive: 0.183%
Nc1c2c(nc3sc4c(c13)CCCCC4)CCCCC2,,inconclusive: -9.12% [fluorescent]
NC(=O)C1CCCNC1 (stereo unspecified),"inconclusive: 15.8 µM [fluorescent, side channel, single point]",
COc1ccc(C(=O)Nc2nnc(CC(=O)N/N=C/c3ccc(O)cc3O)s2)cc1,,inactive: 17.1%
CN(C)c1oc(-c2ccccc2Cl)nc1P(=O)(c1ccccc1)c1ccccc1,"inconclusive: 31.6 µM [quencher, side channel, single point]",
Cc1cc(C)n2nc(C(=O)N/N=C/c3c4ccccc4cc4ccccc34)nc2n1,"inconclusive: 56.2 µM [fluorescent, side channel, single point]",
O=C1OCC2OC(O)C(O)C(O)C2OC(=O)c2cc(O)c(O)c(O)c2-c2c(O)c(O)c3oc(=O)c4c(c(O)c(O)c5oc(=O)c2c3c54)-c2c1cc(O)c(O)c2O (stereo unspecified),"inconclusive: 63.1 µM [inhibitor, single point]",
CN(C)C(=O)/N=N/C(=O)N(C)C,,inactive: -22.4%
Cc1ccc(S(=O)(=O)c2nc(-c3cccs3)oc2NCc2cccnc2)cc1,,inactive: 6.33%
CCN(Cc1ccccc1)c1ccc(/C=N/N=C(N)N)cc1,"inconclusive: 28.2 µM [quencher, side channel, partial curve]",
Cc1cc(=O)oc2c(CN(C)Cc3ccccc3)c(O)ccc12,,inactive: -7.15%
CCc1nnc(NC(=O)CSc2nnc(-c3ccco3)o2)s1,,inactive: 4.45%
O=C(CSc1nc2ccccc2c(=O)n1CCCN1CCOCC1)Nc1ccc2c(c1)OCO2,"inconclusive: 10 µM [quencher, side channel, single point]",

# Exported with bars between the fields: entries from further up.
SMILES | Potency | activity change, negative = inhibition
CCCCOn1c(C)c(C(C)=O)c2c3no[n+]([O-])c3ccc21 | inconclusive: 7.08 µM [fluorescent, side channel, full curve, poor fit] | 
COc1cc2c(cc1OC)C(c1ccccc1)N(C(=O)c1cccc(S(C)(=O)=O)c1)CC2 (stereo unspecified) |  | inactive: 21.1%
CCCCCn1c(=O)[nH]c2cc(C(=O)NCCCN(CC)CC)ccc2c1=O |  | inactive: 0.183%
Nc1c2c(nc3sc4c(c13)CCCCC4)CCCCC2 |  | inconclusive: -9.12% [fluorescent]
NC(=O)C1CCCNC1 (stereo unspecified) | inconclusive: 15.8 µM [fluorescent, side channel, single point] | 
COc1ccc(C(=O)Nc2nnc(CC(=O)N/N=C/c3ccc(O)cc3O)s2)cc1 |  | inactive: 17.1%
CN(C)c1oc(-c2ccccc2Cl)nc1P(=O)(c1ccccc1)c1ccccc1 | inconclusive: 31.6 µM [quencher, side channel, single point] | 
Cc1cc(C)n2nc(C(=O)N/N=C/c3c4ccccc4cc4ccccc34)nc2n1 | inconclusive: 56.2 µM [fluorescent, side channel, single point] | 
O=C1OCC2OC(O)C(O)C(O)C2OC(=O)c2cc(O)c(O)c(O)c2-c2c(O)c(O)c3oc(=O)c4c(c(O)c(O)c5oc(=O)c2c3c54)-c2c1cc(O)c(O)c2O (stereo unspecified) | inconclusive: 63.1 µM [inhibitor, single point] | 
CN(C)C(=O)/N=N/C(=O)N(C)C |  | inactive: -22.4%
Cc1ccc(S(=O)(=O)c2nc(-c3cccs3)oc2NCc2cccnc2)cc1 |  | inactive: 6.33%
CCN(Cc1ccccc1)c1ccc(/C=N/N=C(N)N)cc1 | inconclusive: 28.2 µM [quencher, side channel, partial curve] | 
Cc1cc(=O)oc2c(CN(C)Cc3ccccc3)c(O)ccc12 |  | inactive: -7.15%
CCc1nnc(NC(=O)CSc2nnc(-c3ccco3)o2)s1 |  | inactive: 4.45%

# (further entries)

SMILES,Potency,"activity change, negative = inhibition"
CC(C)c1ccc(-n2c(-c3ccccc3)c[n+]3c2CCc2ccccc2-3)cc1,,inactive: 15.4%
COc1ccc(Nc2nc3ccccc3n3cnnc23)cc1Cl,"inconclusive: 15.8 µM [fluorescent, side channel, partial curve]",
Cc1ccc(NS(=O)(=O)c2ccc(NC(=O)N3CCCCC3)cc2)cc1,"inconclusive: 8.91 µM [quencher, side channel, single point]",
Cn1c(-c2ccc(C=O)s2)nc2c3ccccc3c3ccccc3c21,"inconclusive: 31.6 µM [fluorescent, side channel, partial curve]",
Cc1nn(-c2ccccc2)c(C)c1/C=N/NC(=O)c1cccs1,,inactive: -5.26%
O=C(c1ccc2nc3ccc(Cl)cc3c(=O)n2c1)N1CCOCC1,,inactive: 1.75%
CCOC(=O)c1c(C)n(C)c2c1cc(OC(C)=O)c1ccccc12,,inactive: -3.22%
Cc1ccc(-c2csc(NC(=O)Cn3[nH]c(=O)c4ccccc4c3=O)n2)cc1,"inconclusive: 31.6 µM [fluorescent, side channel, partial curve]",
Cc1ccc2nc(C)cc(C(=O)N3CCCC(N4CCN(c5ccccc5C)CC4)C3)c2c1 (stereo unspecified),"inconclusive: 14.1 µM [quencher, side channel, single point]",
Cc1cc2cc(CNC(=O)COc3ccccc3)ccc2n1C,,inactive: -10.7%
Cc1ccc(/C(O)=C/c2nc3ccccc3oc2=O)cc1,"inconclusive: 35.5 µM [fluorescent, side channel, partial curve]",
CC(C)CC(=O)Nc1c(C(=O)N2CCN(Cc3ccccc3)CC2)oc2ccccc12,"inconclusive: 35.5 µM [inhibitor, single point]",
COc1cccc(OCC(=O)Nc2ccccc2-c2ccccc2)c1,"inconclusive: 6.31 µM [quencher, side channel, full curve, poor fit]",
Cn1cccc1C(=O)Nc1nc(-c2ccccn2)cs1,"inconclusive: 11.2 µM [inhibitor, partial curve]",
CC12CCC(C(=O)NNC(=O)c3ccccc3)(OC1=O)C2(C)C (stereo unspecified),"inconclusive: 14.1 µM [fluorescent, side channel, single point]",
COc1cccc(Nc2nc(-c3sc(NC(=O)CC(C)C)nc3C)cs2)c1,"inconclusive: 12.6 µM [fluorescent, side channel, single point]",
N#C/C(=C\c1ccc(N2CCOCC2)o1)C(=O)N1CCOCC1,"inconclusive: 35.5 µM [fluorescent, side channel, partial curve]",
Cc1ccc(NS(=O)(=O)c2cccc3cccnc23)cc1Cl,"inconclusive: 1.58 µM [fluorescent, side channel, full curve]",
O=[N+]([O-])c1ccccc1S(=O)(=O)Nc1cccc2cccnc12,"inconclusive: 14.1 µM [fluorescent, side channel, single point]",
COc1ccc(N(CC(=O)NC2CCCCC2)C(=O)CNC(=O)c2cccs2)cc1OC,"inconclusive: 15.8 µM [fluorescent, side channel, single point]",
O=C(Cc1ccccc1)NCCSCc1ccccc1,,inactive: 1.13%
Cc1c(N=C2NC(=O)/C(=C/c3cccc([N+](=O)[O-])c3)S2)c(=O)n(-c2ccccc2)n1C,"inconclusive: 50.1 µM [fluorescent, side channel, single point]",

SMILES,Potency,"activity change, negative = inhibition"
CCCCN(C)CCC(=O)Nc1ccc(C)cc1,"inconclusive: 1.41 µM [fluorescent, side channel, full curve]",
COc1cc(/C=C2/SC(=S)NC2=O)ccc1OS(=O)(=O)c1ccc(C)cc1,,inactive: 7.76%
N/C(=N\OS(=O)(=O)c1ccccc1)c1ccccn1,"inconclusive: 22.4 µM [fluorescent, side channel, partial curve, poor fit]",
COc1ccc2cc(-c3cc(C(=O)O)c4ccccc4n3)ccc2c1,,inactive: 8.23%
Cc1cc(C(=O)Nc2ccc(Cl)cc2)c(C)n1-c1ccccc1,,inactive: 0.107%
Cc1ccccc1C(=O)Nc1cccc(C(=O)Nc2ccccc2C(=O)O)c1,"inconclusive: 31.6 µM [inhibitor, partial curve]",
Cc1ccc(NC(=O)Cc2ccc(-c3ccccc3)cc2)nc1,"inconclusive: 8.91 µM [activator, full curve]",
CC(=Nc1cccc(C)c1)c1sc2ccccc2c1O,"inconclusive: 35.5 µM [inhibitor, single point]",
COc1ccc(NC(=O)CCCNS(=O)(=O)c2cccs2)cc1,,inactive: 3.23%
COc1ccc(Cn2c(N)c(C#N)c3nc4ccccc4nc32)cc1OC,,inactive: 26.9%
N#Cc1ccc(NC(=S)NC(=O)CCc2ccc(S(=O)(=O)N3CCOCC3)cc2)cc1,"inconclusive: 11.2 µM [fluorescent, side channel, single point]",
Cc1cc(C)c(NC(=S)N(CCc2ccncc2)C(C)C)c(C)c1,"inconclusive: 15.8 µM [fluorescent, side channel, partial curve, poor fit]",
Cc1ccc(CNC(=O)c2nccnc2C(=O)O)cc1,"inconclusive: 89.1 µM [inhibitor, single point]",
Nc1c2ccccc2nc2ccccc12,"inconclusive: 50.1 µM [inhibitor, single point]",
CCCCNC(=S)N(C)/N=C/c1ccc(F)cc1,"inconclusive: 12.6 µM [fluorescent, side channel, single point]",
CCN(CC)S(=O)(=O)c1ccc2c(c1)nc(CCC(=O)OCC(=O)Nc1cc(Cl)cc(Cl)c1)n2C,,inactive: 7.49%
COc1ccc(C)cc1NC(=O)CSc1nnc(CC(=O)Nc2cccc(C(F)(F)F)c2)n1C,,inactive: -0.301%
COc1cc(/C=N/NC(=O)c2cccc(C(=O)N/N=C/c3ccc(O)c(OC)c3)n2)ccc1O,"inconclusive: 63.1 µM [fluorescent, side channel, single point]",
Cc1ccc(S(=O)(=O)c2ccc([N+](=O)[O-])cn2)cc1,"inconclusive: 89.1 µM [quencher, side channel, single point]",
Cc1cc(C)c2c(c1)NC(C(=O)O)C1CC=CC21 (stereo unspecified),"inconclusive: 35.5 µM [inhibitor, partial curve]",
O=Cc1ccc2noc(-c3ccc(F)cc3)c2c1,"inconclusive: 31.6 µM [fluorescent, side channel, single point]",
CC(C)=CCC1=C(OCC(=O)O)C(=O)c2ccccc2C1=O,"inconclusive: 31.6 µM [inhibitor, partial curve]",
